# From PubChem BioAssay AID1508600 (Functional Genomics Laboratory (NCATS/FGL), 2020)
# About 3,700 (7%) of roughly 53,000 sequences were called active.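 How the source made its calls: active means gene knockdowns whose robust z-score for IL-1 alpha signal is at least 2 or at most -2, so actives lie on both sides; inactive means the rest.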 The list shows a part of the results.
# Assay: Components of the Cytosolic LPS Sensing Pathway: Gene Identification via Genome-wide siRNA Screen;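 further: robust z of the log signal after scaling to non-targeting control siRNA wells of the plate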
# Details: RAW264.7 macrophages, IL-1a HTRF, actives lie on both sides, screened at 100 nM (by protocol), cells primed 5 h with Pam3CSK4 first
# Summary of the method: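 RAW264.7; siRNA 100 nM final, RNAiMAX, 48h 37 degrees C; Pam3CSK4 5 h; LipidA + TransIT-TKO 24 h; IL-1a HTRF; CellTiter-Glo viability; robust z vs negative-control median.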
row,Sequence,z-score
1,GGAAUACAAAAAUUACCUGTT against Bdnf,inactive: -0.00754
2,GCGAUGAAGAGAACUUAAGTT against Pts,inactive: 1.08
3,GUGCAGAUACUACCUACAATT against Olfr132,inactive: 0.0398
4,CGACCAGAGUUAUCUGAAUTT against Ctf2,active: 2.2
5,GCUCACAAGAUGGUUCGGGTT against Rab3il1,inactive: -0.546
6,GGGUGUGCUUCAUAUCAAATT against 2210407C18Rik,inactive: 0.812
7,GCACAGUGUAACUUAGGGCTT against Cenpb,inactive: -0.525
8,GCCAGCUUUUAGUAUCAACTT against Sun1,active: 2.4
9,GGUUCUUUUAUGGAUGACATT against Prkaa2,inactive: -0.964
10,CGACACACCUAGCUAAACCTT against Dgkeos,inactive: -1.98
11,GGCCAAAUAACCACUGUGGTT against Lsm10,inactive: -1.91
12,GGUAGUAAGUGGCAGUCCUTT against Zic5,inactive: 0.264
13,AGUCAUGAAGCAAAUGAUUTT against Olfr900,inactive: -0.318
14,CCUAUACAUGCUACUGAACTT against Itga9,inactive: -0.723
15,GGCAUUCAGUGUUGCGUACTT against Apba1,inactive: -0.245
16,GGUGAUGAUCCCAUGGGUUTT against Ube2g2,inactive: -0.289
17,CCCAAAUGUUAUUCCAAAUTT against Cfap300,inactive: 1.07
18,GCCGGUGGAAUAUGCUCCATT against Clrn3,inactive: -0.614
19,GGACUGAAGCUUACUUUCUTT against Fndc7,inactive: 0.155
20,AUUCUCUGGUUCAAGCUACTT against Olfr223,inactive: -1.04
21,GUUACCACACCAAAAAUGGTT against Olfr1299,inactive: -1.59
22,GACUACAAAGGAGAGCAAATT against Igfbp6,active: 2.07

row,Sequence,z-score
1,GGGCAGUAAGACCUUCAUGTT against Dhcr24,inactive: 0.685
2,CCUAUGAAUGUGUUAAAGATT against Osgin2,inactive: 0.428
3,CCUGAAUACCAUGACAUGUTT against Tfpi2,inactive: -0.192
4,GGAACAACUUCGAACAUAATT against Dok3,inactive: 0.234
5,GCUCAGCUUGCUUCACUCATT against Lrrc8e,inactive: -1.79
6,AACACUGGGUACAUCUACATT against H2-Q7,inactive: 1.75
7,GCCGCUGUCCAUCUUUAUGTT against Tmem121b,inactive: -0.341
8,GGCUUUCACUGAAGAUCUUTT against Fancg,inactive: 0.0412
9,GCUGGAUCCAUACAAUUUGTT against Gdi2,inactive: -0.619
10,CCAAUGCACAGGUCAUCACTT against Lbx1,inactive: -0.457
11,CCUCCUAUGUCUUCCUCAUTT against Olfr1173,inactive: 0.343
12,GGUUAUCAUACUUUUUGUGTT against Phf10,inactive: -0.582
13,CGGUAAGUUAAAGAAGACATT against Erlin1,inactive: 1.35
14,GCCUGGCUGACGAUAUAGATT against Golga2,inactive: 0.0977
15,CCAAAACGGAGAAAAUCAGTT against Ccar1,inactive: -0.16
16,GGCAUUGAGAAGUUUGAAGTT against Fmo9,inactive: -1.07
17,GGCCUGUGAGACCAAUUGGTT against Zfp629,inactive: -0.528
18,GGACAAUGCAGUGCUGAAATT against Car2,active: 3.37
19,GGAGGUCCAACUAAGACACTT against Fzd8,inactive: -1.01
20,GCAACCUUCAUUCGUAUAUTT against Wdcp,inactive: 0.436
21,GGUGUUUGAUAGGUAUCUUTT against Ptpa,inactive: -1.12
22,GGUGUUUCAGGUGGACUAUTT against Dzank1,inactive: 1.04

row,Sequence,z-score
1,CCAUCCCAUUUAAUGGAUGTT against Olfr1257,inactive: 1.09
2,GGAAGCUGUUUCAAACAAATT against Ugt2b35,inactive: 0.145
3,GGAUUAUGGUCCAAAUAAATT against Hpcal4,inactive: 0.547
4,GGACAGCUACCUCAUCCAUTT against Lpcat3,active: 2.08
5,CCAUGUUUUCCGCUUCAAUTT against Kif1c,inactive: 0.0159
6,GCAUGUUACUAGGAUAACUTT against Mup20,active: 2.27
7,GGAUCAGGAGCUGUUUGGATT against Adamtsl4,inactive: 1.05
8,GGAAAAAGAGAAGACCUGCTT against Dcun1d4,inactive: -1.01
9,GGUGCAUUACAAAUACACATT against Ncf2,inactive: 1.05
10,GGUCACGUGCAGUUAUAUCTT against Rab32,inactive: -0.869
11,GGCCCUGUGAUAUUUCUCGTT against Pax8,inactive: -0.797
12,CGGACUUCAAGGACAAGAUTT against Carm1,inactive: 0.456
13,GGGCAAAGACAUUUUGUAUTT against Nt5c2,inactive: -0.337
14,GCCUGUGCCUUUUGAAUUCTT against Brox,inactive: -0.0201
15,CGCUACCUACAGAAUAACATT against Naif1,inactive: -0.8
16,CCUUUGUAAAGACUACUUATT against Ssh2,inactive: 1.87
17,GGAGAAGAUCAAGAUGUUCTT against Adi1,inactive: -0.0286
18,GGCUACAAACUUCAAGAAATT against Cel,inactive: -0.602
19,CGUGGUUAAGUUUGCUGGGTT against P2rx3,inactive: 1.16
20,GGUGGAGCUGGACAAGAAGTT against Nefm,inactive: 0.454
21,GGCAGAGUGCAUUUUGCUATT against Ptpn5,inactive: 0.411
22,GCAUCAUACCACUGUGUUUTT against Obox1,inactive: -1

row,Sequence,z-score
1,GCCAACGAGAGUAAACACGTT against 5930403N24Rik,inactive: -0.0706
2,GGAAUGGUAUCAGACUUCUTT against Tarm1,inactive: 1.54
3,GGAAGCUACCUGGAAGACATT against Meaf6,inactive: 0.0935
4,GGCAGAGAAAGAGCUAAAGTT against Dtx3,inactive: 0.663
5,GCCGAAUAUUUCGGAGCCATT against Ropn1,inactive: -0.286
6,GCCGAGGCUGUUGUGUUGATT against Gpaa1,inactive: -1.04
7,CCUCAAAAUCCUACAUCUUTT against AY702103,inactive: -0.456
8,CCUUUCAAGUUGUAGGCUGTT against Zfp759,inactive: 0.0416
9,GCUCUUAGGACAGACAGACTT against Dnajb12,inactive: 1.05
10,GGAGUCUUCUCAAUUUGACTT against Olfr1105,inactive: -0.617
11,GGUUGGCCUAAUAGUGCAUTT against Cbr1,inactive: 0.732
12,CCAUAUCCUUAACCUUAGGTT against Gdi1,inactive: 0.701
13,GGUUCUAGGGAAAAAAACATT against Celf3,inactive: -0.417
14,CGAAUCUCUGGCAAAAUGGTT against Cdk1,inactive: -0.0941
15,GGAAGAUCAAGGGACUCAUTT against Serpina3c,inactive: 0.0466
16,GCCUCCUUGUCUGGAAAUUTT against Aftph,inactive: -0.797
17,GCGUGGUCUUAACUGCUCATT against Zfat,inactive: -0.212
18,GGCAGAAUACUAUAUAUAGTT against Tmx2,inactive: 0.879
19,GGCCAGUCAAGGUUGGAUUTT against Gpr152,inactive: -0.32
20,GGUCAUCAACGUGCUAGAGTT against Nucb1,inactive: -1.3
21,GGAUAACACCACCAACUAUTT against Akap8l,inactive: 0.456
22,GCAGAAUGAGUUCAGACGATT against Mgmt,inactive: 0.36

row,Sequence,z-score
1,GGAAGUAAUCAAUUUGGUGTT against Epm2aip1,inactive: 1.36
2,GCUUCAGCUCAACUCCGCATT against Vps33a,inactive: 0.214
3,GGCCUUGUAUCUCUUUACATT against Hdgf,inactive: 0.425
4,GGUCCAUCAUGAGGUCUCUTT against Phkg2,inactive: -1.59
5,GCAAAUAUAUGUUUGGCUGTT against Snap25,inactive: 0.892
6,CCCACUCCGAUAUACUGCUTT against Olfr447,active: 2.2
7,GGCACAAAAUGACUCCUAUTT against Tspear,inactive: -0.936
8,GGACCUGGUCACCAUCUUGTT against Tram2,inactive: -0.3
9,GGAUCAUAGUUACAAGGCUTT against L3mbtl2,inactive: 0.458
10,GGUCACCAAAGUGAAAACATT against Ndufa8,inactive: -0.187
11,GGUCUAUCCCAUCAUGCCUTT against Clcnka,inactive: 0.583
12,GCAGGCGAUAUAGAAGCAATT against Frg1,inactive: 0.475
13,CCAUUCAUUUAACCUUUCATT against Acot11,inactive: -0.814
14,GGAGUUCAGCAACCUGUUGTT against Tmem97,active: -2.08
15,GGAGCUACGAGGAAUUGGUTT against Brwd1,inactive: 0.062
16,GCUGCAUCCGUAGAUGUUGTT against Aldh1l1,inactive: 0.208
17,GGAGAACUGCUUCCACAUGTT against Clec4a3,inactive: 0.418
18,GGAACACCAUCAUCAGUCATT against Ephb2,inactive: -0.448
19,GGCACAAUUUCUUUGAAUCTT against Ophn1,inactive: 0.885

# A different layout for some results above.
row | Sequence | z-score
15 | GGCAUUCAGUGUUGCGUACTT against Apba1 | inactive: -0.245
16 | GGUGAUGAUCCCAUGGGUUTT against Ube2g2 | inactive: -0.289
17 | CCCAAAUGUUAUUCCAAAUTT against Cfap300 | inactive: 1.07
18 | GCCGGUGGAAUAUGCUCCATT against Clrn3 | inactive: -0.614
19 | GGACUGAAGCUUACUUUCUTT against Fndc7 | inactive: 0.155
